Values quoted from earlier work, collected in US9498486B1, “Method for controlled release oral dosage of a vitamin D compound” (OPKO RENAL, LLC, priority 2007, dated 2016).
Some results were stated once for a whole list of compounds, not compound by compound. At least one compound was matched to its structure with a doubt left.

Target: T1, VDR (Homo sapiens, UniProt P11473)
T1 sequence (P11473 1-427): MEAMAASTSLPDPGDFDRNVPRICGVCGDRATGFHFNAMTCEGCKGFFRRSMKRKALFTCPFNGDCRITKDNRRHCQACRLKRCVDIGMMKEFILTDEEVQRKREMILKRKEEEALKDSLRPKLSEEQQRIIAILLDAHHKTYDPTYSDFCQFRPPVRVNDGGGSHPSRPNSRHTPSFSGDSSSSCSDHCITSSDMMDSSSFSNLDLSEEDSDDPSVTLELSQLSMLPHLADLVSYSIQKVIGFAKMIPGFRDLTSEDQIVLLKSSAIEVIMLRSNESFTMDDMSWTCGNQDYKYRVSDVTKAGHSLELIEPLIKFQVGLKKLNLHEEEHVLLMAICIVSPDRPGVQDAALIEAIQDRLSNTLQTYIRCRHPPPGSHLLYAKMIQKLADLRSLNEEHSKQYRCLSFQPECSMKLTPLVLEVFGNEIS
Details: estimated; cited from earlier work

Compound	affinity for the VDR, lower than those of the Vitamin D hormones
C=C1CC[C@H](O)C/C1=C/C=C1\CCC[C@]2(C)[C@@H]([C@H](C)/C=C/[C@H](C)C(C)(C)O)CC[C@@H]12 [25-hydroxyvitamin D2]	at least 100 fold
C=C1CC[C@H](O)C/C1=C/C=C1\CCC[C@]2(C)[C@@H]([C@H](C)CCCC(C)C)CC[C@@H]12 [Cholecalciferol]	at least 100 fold
